# Results deposited as PubChem BioAssay AID652243 (Drosophila RNAi Screening Center, 2013)
# Test: 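Fly regulators of androgen-dependent reporter output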 (primary screen)
# Cells: Drosophila S2R+ cells
# Reagent: long dsRNA against Drosophila genes
# Timing: 72 h (48 h, then 24 h hormone)
# Challenge: synthetic androgen R1881 at 10 nM for 24 h
# Detection: 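Per-well raw luminescence of the androgen-driven firefly reporter and of the Renilla control, two replicates each, without normalisation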
# Reading the numbers: firefly reporter light: higher = more light from androgen-responsive reporter; Renilla control light: higher = more constitutive control signal (cell number, transfection)
# Hit rule: 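Hit when the log firefly-to-Renilla ratio dropped or increased by a fixed fold versus the mean of GFP or LacZ controls across duplicate plates; lowering cut given as 1.5 and as 3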
# Calls: active = hit: reporter lowered or raised; inactive = no hit
# The deposit covers about 24,000 reagents; this is a random part of those that have a named target and a result. Over the whole deposit, 246 (1%) are marked active. 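Plates not normalised; calls are printed but the firefly/Renilla ratio behind them is not deposited; fold cut for lowering reported inconsistently.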 The raw values are shown without normalisation. Entries without a mark were called inactive. The numbers tell different reagents against one gene apart. No sequences are given here. The record does not give: the amount of reagent.
Gene,dsRNA no.,"firefly reporter light, replicate 1","firefly reporter light, replicate 2","Renilla control light, replicate 1","Renilla control light, replicate 2"
CG12115,1,3.88e5,4.35e5,2.82e6,3.62e6
CG18048,1,1.15e5,84838,2.80e6,2.24e6
CG18048,2,3.38e5 (active),3.08e5,1.79e6,1.26e6
MED21 (Mediator complex subunit 21),1,7.77e5,5.39e5,1.65e6,1.13e6
teq (Tequila),1,2.46e5,2.42e5,2.55e6,2.38e6
teq (Tequila),2,2.88e5,1.08e5,2.59e6,1.18e6
teq (Tequila),3,4.91e5,5.11e5,3.40e6,3.05e6
Rab40,1,4.06e5,4.82e5,3.84e6,3.88e6
CG5116,1,3.40e5,5.37e5,3.29e6,4.39e6
CG1824,1,4.72e5,4.26e5,2.68e6,3.66e6
Ugt36E1 (UDP-glycosyltransferase family 36 member E1),1,1.48e6,7.18e5,2.05e6,1.14e6
CG1552,1,4.37e5,4.52e5,2.85e6,3.41e6
CG1552,2,6.76e5,6.34e5,1.06e6,8.41e5
sisA,1,1.26e5,1.08e5,2.51e6,2.62e6
sisA,2,4.60e5,4.65e5,1.44e6,1.44e6

The list goes on, starting with the last 3 of the part before.
Gene,dsRNA no.,"firefly reporter light, replicate 1","firefly reporter light, replicate 2","Renilla control light, replicate 1","Renilla control light, replicate 2"
CG1552,2,6.76e5,6.34e5,1.06e6,8.41e5
sisA,1,1.26e5,1.08e5,2.51e6,2.62e6
sisA,2,4.60e5,4.65e5,1.44e6,1.44e6
spz3 (spatzle 3),1,1.81e5,2.04e5,1.38e6,1.38e6
spz3 (spatzle 3),2,48285,75104,5.15e5,7.11e5
Hexim (Hexamethylene bisacetamide inducible),1,38767,59351,4.10e5,4.07e5
RFeSP (Rieske iron-sulfur protein),1,1.52e5,1.66e5,1.15e6,1.25e6
RFeSP (Rieske iron-sulfur protein),2,3.17e5,2.61e5,5.54e5,4.77e5
CG10338,1,1.14e5,1.38e5,1.45e6,1.43e6
CG12511,1,1.52e5,1.57e5,1.59e6,1.40e6
LS2 (Large Subunit 2),1,1.92e5,2.17e5,1.28e6,1.95e6
nAChRalpha4 (nicotinic Acetylcholine Receptor alpha4),1,2.54e5,2.40e5,5.09e5,5.46e5
nAChRalpha4 (nicotinic Acetylcholine Receptor alpha4),2,3.91e5,4.13e5,5.46e5,6.37e5
